Read-outs that look alike come from different tables or passages of the source. For at least one compound, name, drawing or mass did not settle the structure. Starred links: 1 amine or outer side, 2 acyl side, 3 side chain; linkers in the order of their positions; H or OH if unused. Positions of bridges follow the written chain, without caps; N, C: chain ends. Non-standard residues stand in square brackets, D forms with d. Residues, ends and D or L forms follow the SMILES beside them. ξ: configuration not given here. Phe(2,4-F2) = N[C@@H](Cc1ccc(F)cc1F)C(=O)O; Tic(7-OH) = O=C(O)[C@@H]1Cc2ccc(O)cc2CN1; Phe(3-Me) = Cc1cccc(C[C@H](N)C(=O)O)c1; 2Nal = N[C@@H](Cc1ccc2ccccc2c1)C(=O)O; βAsp = O=C(O)[C@H](CC(=O)[*:2])N[*:1]; Bta = N[C@@H](Cc1csc2ccccc12)C(=O)O; Ahp(2) = CCCCC[C@H](N)C(=O)O; NMeNle = CCCC[C@H](NC)C(=O)O; Tle = CC(C)(C)[C@H](N)C(=O)O; ξTic = O=C(O)C1Cc2ccccc2CN1; NMeS = CN[C@@H](CO)C(=O)O; NHexGly = CCCCCCNCC(=O)O; Nle = CCCC[C@H](N)C(=O)O; Orn = NCCC[C@H](N)C(=O)O; Aun = NCCCCCCCCCCC(=O)O; AEEA = NCCOCCOCC(=O)O; ξP = O=C(O)C1CCCN1
Target: T1, mouse VISTA (mVISTA) (Mus musculus, UniProt Q9D659)
T1 construct: expressed in transfected cells; host or cells: Human embryonic kidney 293T cells
T1 sequence (Q9D659 33-308): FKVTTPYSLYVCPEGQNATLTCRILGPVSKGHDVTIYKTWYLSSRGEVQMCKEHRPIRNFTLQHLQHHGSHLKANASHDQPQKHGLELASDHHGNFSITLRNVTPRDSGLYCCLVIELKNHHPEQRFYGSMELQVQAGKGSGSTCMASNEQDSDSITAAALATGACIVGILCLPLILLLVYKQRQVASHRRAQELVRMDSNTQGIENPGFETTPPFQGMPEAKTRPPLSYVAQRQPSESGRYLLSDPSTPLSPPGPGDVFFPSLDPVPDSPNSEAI
Assay: Cell-Based Binding High-Content Assay For mVISTA (HC CBA mVISTA)
Procedure: Cell-Based Binding High-Content Assay For mVISTA
Human embryonic kidney 293T cells (293T) expressing mouse VISTA (mVISTA) were used for the assessment of compounds competing with the binding of a biotinylated peptide. Cryopreserved cells were thawed in a 37° C. water bath and incubated overnight at a 37° C./5% CO2 incubator in assay culture media DMEM (Life Technologies Inc. Cat. No. 11995-126) supplemented with 10% (v/v) FBS (Sigma, Cat. No. F4135), 1× Penicillin/Streptomycin (Life Technologies Inc. Cat. No. 15140-122). Cells were harvested, washed and resuspended in DMEM media […]. To test compounds under “no-wash” condition, cells were seeded into PDL-coated 384 well plates (Corning, Cat. No. 356663) at 4,000 cells/20 μL. After incubating the cell plates for two hours at a 37° C./5% CO2 incubator, 125 nL of test compound was added using an ECHO. Alternatively, to test compounds under “wash” condition, test compounds were added first, followed by addition of 20 μL cells at a density of 4000 cells/well. After incubation for an hour, the media was removed, followed by addition of 20 μL of fresh media ( ), and plates were then incubated for another hour. To plates either under “no wash” or “wash” condition, the biotinylated peptide was added to a final concentration of 2 nM, and plates were incubated at room temperature for 30 minutes. Fifteen (15) μL of Alexa 647 conjugated Streptavidin (Life Tech, Cat. No. S21374), suspended at 2 μg/ml in media, was added to the assay plate and incubate for 30 minutes. Cells were fixed by adding 15 μL of formaldehyde at a final concentration of 8% (w/v) (Sigma Cat. No. 252549), 20 μg/mL Hoechst (Thermo Scientific Cat. No. 62249) in PBS for 10 minutes at room temperature. The plates were washed 3 times in dPBS, sealed, and read on a CellInsight NXT High Content Screening Platform IC903000 (Thermo Scientific). The 50% effective concentration (IC50) was calculated using the four-parameter logistic formula y=A+((B−A)/(1+((C/x)^D))), where A and B denote minimal and maximal % inhibition, respectively, C is the EC50, D is hill slope and x represent compound concentration.

[1] = cell-based binding high-content assay, read-out: HC CBA miPrISTA IC50

SMILES: CCCCCCN1CC(=O)N[C@@H](Cc2ccc(O)cc2)C(=O)N[C@@H](CC(C)C)C(=O)N[C@H](CC(N)=O)C(=O)N[C@@H](CCCNC(=N)N)C(=O)N[C@@H](CC(C)C)C(=O)N[C@@H](CCCCC)C(=O)N2CCC[C@H]2C(=O)N[C@@H](C(C)C)C(=O)N[C@@H](C(C)C)C(=O)N[C@H](C(=O)N[C@@H](CO)C(=O)O)CSCC(=O)N[C@@H](Cc2ccc(F)cc2F)C(=O)N[C@@H](Cc2ccc(O)cc2)C(=O)N[C@@H](CC(=O)O)C1=O [compound 1470] ({CH2CO}-[Phe(2,4-F2)]YD[NHexGly]YL[dN]RL[Ahp(2)]PVVCS-OH; thioether N-14)
- IC50 (the 20th table, scaffold drawing 23, read-out: HC CBA mVISTA IC50): 24.3 nM

SMILES: CCCCCCN1CC(=O)N[C@@H](Cc2ccc(O)cc2)C(=O)N[C@@H](CCCC)C(=O)N[C@@H](CC(N)=O)C(=O)N[C@@H](CCCNC(=N)N)C(=O)N(C)[C@@H](CCCC)C(=O)N[C@@H](CCCCC)C(=O)N2CCC[C@H]2C(=O)N[C@@H](C(C)C)C(=O)N[C@@H](CC(=O)O)C(=O)N[C@H](C(=O)NCCOCCOCC(=O)N[C@@H](CCC(=O)O)C(=O)NCCOCCOCC(=O)NCCCCCCCCCCC(=O)O)CSCC(=O)N[C@@H](Cc2ccccc2)C(=O)N[C@@H](Cc2c[nH]c3ccccc23)C(=O)N[C@@H](CC(=O)O)C1=O [compound 2301] ({CH2CO}-FWD[NHexGly]Y[Nle]NR[NMeNle][Ahp(2)]PVDC[AEEA]E[AEEA][Aun]-OH; thioether N-14)
- IC50 [1]: 19.9 nM

SMILES: CCCCCCN1CC(=O)N[C@@H](Cc2ccc(O)cc2)C(=O)N[C@@H](CCCC)C(=O)NCC(=O)N[C@@H](CCCNC(=N)N)C(=O)N[C@@H](CC(C)C)C(=O)N[C@@H](CCCCC)C(=O)N2CCC[C@H]2C(=O)N[C@@H](C(C)C)C(=O)N[C@@H](CC(=O)O)C(=O)N[C@H](C(=O)NCCOCCOCC(=O)N[C@@H](CC(=O)NCCOCCOCC(=O)NCCCCCCCCCCC(=O)O)C(=O)O)CSCC(=O)N[C@@H](Cc2cccc(C)c2)C(=O)N[C@@H](Cc2ccc(O)cc2)C(=O)N[C@@H](CC(=O)O)C1=O [Example 2203] ({CH2CO}-[Phe(3-Me)]YD[NHexGly]Y[Nle]GRL[Ahp(2)]PVDC[AEEA][βAsp][AEEA][Aun]-OH; thioether N-14)
- IC50 (read-out: HC CBA mVISTA IC50): 21.5 nM

SMILES: CCCCCCN1CC(=O)N[C@@H](Cc2ccc(O)cc2)C(=O)N[C@@H](CC(C)C)C(=O)N[C@@H](CC(N)=O)C(=O)N[C@@H](CCCNC(=N)N)C(=O)N[C@@H](CC(C)C)C(=O)N[C@@H](CCCCC)C(=O)N2CCC[C@@H]2C(=O)N[C@@H](C(C)C)C(=O)N[C@@H](C(C)C)C(=O)N[C@H](C(=O)NCC(=O)N[C@@H](CC(=O)NCCOCCOCC(=O)N[C@@H](CC(=O)O)C(=O)NCCOCCOCC(=O)NCCCCCCCCCCC(=O)O)C(=O)O)CSCC(=O)N[C@@H](Cc2ccccc2)C(=O)N[C@@H](Cc2cccc(C)c2)C(=O)N[C@@H](CC(=O)O)C1=O [compound 2103] ({CH2CO}-F[Phe(3-Me)]D[NHexGly]YLNRL[Ahp(2)][dP]VVCG[βAsp][AEEA]D[AEEA][Aun]-OH; thioether N-14)
- IC50 (read-out: HC CBA mVISTA IC50): 6.7 nM

SMILES: CCCCCCN1CC(=O)N[C@@H](Cc2ccc(O)cc2)C(=O)N[C@@H](CCCC)C(=O)N[C@@H](CC(N)=O)C(=O)N[C@@H](CCCNC(=N)N)C(=O)N2Cc3cc(O)ccc3C[C@H]2C(=O)N[C@@H](CCCCC)C(=O)N2CCC[C@H]2C(=O)N[C@@H](C(C)C)C(=O)N[C@@H](CC(=O)O)C(=O)N[C@H](C(=O)NCC(=O)O)CSCC(=O)N[C@@H](Cc2ccc3ccccc3c2)C(=O)N[C@@H](Cc2c[nH]c3ccccc23)C(=O)N[C@@H](CC(=O)O)C1=O [compound 1262] ({CH2CO}-[2Nal]WD[NHexGly]Y[Nle]NR[Tic(7-OH)][Ahp(2)]PVDCG-OH; thioether N-14)
- IC50 (cell-based binding high-content assay, mVISTA, the 15th table, read-out: HC CBA mVISTA IC50): 21.6 nM

SMILES: CCCCCCN1CC(=O)N[C@@H](Cc2ccc(O)cc2)C(=O)N[C@@H](CCCC)C(=O)N[C@@H](CC(N)=O)C(=O)N[C@@H](CCCNC(=N)N)C(=O)N[C@@H](CC(C)C)C(=O)N[C@@H](CCCCC)C(=O)N2CCC[C@H]2C(=O)N[C@@H](C(C)C)C(=O)N[C@@H](CC(=O)O)C(=O)N[C@H](C(=O)N[C@@H](CO)C(=O)O)CSCC(=O)N[C@@H](Cc2ccccc2)C(=O)N[C@@H](Cc2ccc(F)cc2F)C(=O)N[C@@H](CC(=O)O)C1=O [compound 1336] ({CH2CO}-F[Phe(2,4-F2)]D[NHexGly]Y[Nle]NRL[Ahp(2)]PVDCS-OH; thioether N-14)
- IC50 (read-out: HC CBA mVISTA IC50): 20.7 nM

SMILES: CCCCCCN1CC(=O)N[C@@H](Cc2ccc(O)cc2)C(=O)N[C@@H](CC(C)C)C(=O)N[C@@H](CC(N)=O)C(=O)N[C@@H](CCCNC(=N)N)C(=O)N(C)[C@@H](CCCC)C(=O)N[C@@H](CCCCC)C(=O)N2CCC[C@H]2C(=O)N[C@@H](C(C)(C)C)C(=O)N[C@@H](CO)C(=O)N[C@H](C(=O)N[C@@H](CC(=O)NCCOCCOCC(=O)N[C@@H](CCCN)C(=O)NCCOCCOCC(=O)NCCCCCCCCCCC(=O)O)C(=O)O)CSCC(=O)N[C@@H](Cc2ccccc2)C(=O)N[C@@H](Cc2ccc(O)cc2)C(=O)N[C@@H](CC(=O)O)C1=O [compound 2334] ({CH2CO}-FYD[NHexGly]YLNR[NMeNle][Ahp(2)]P[Tle]SC[βAsp][AEEA][Orn][AEEA][Aun]-OH; thioether N-14)
- IC50 (cell-based binding high-content assay, read-out: HC CBA mVISTA IC50): 33 nM

SMILES: CCCCCCN1CC(=O)N[C@@H](Cc2ccc(O)cc2)C(=O)N[C@@H](CC(C)C)C(=O)N[C@@H](CC(=O)O)C(=O)N[C@@H](CCCN)C(=O)N(C)[C@@H](CO)C(=O)N[C@@H](CCCCC)C(=O)N2CCC[C@H]2C(=O)N[C@@H](C(C)(C)C)C(=O)N[C@@H](CC(N)=O)C(=O)N[C@H](C(=O)N[C@@H](CC(=O)NCCOCCOCC(=O)N[C@@H](CC(=O)O)C(=O)NCCOCCOCC(=O)NCCCCCCCCCCC(=O)O)C(=O)O)CSCC(=O)N[C@@H](Cc2ccccc2)C(=O)N[C@@H](Cc2ccc(O)cc2)C(=O)N[C@@H](CC(=O)O)C1=O [compound 2065] ({CH2CO}-FYD[NHexGly]YLD[Orn][NMeS][Ahp(2)]P[Tle]NC[βAsp][AEEA]D[AEEA][Aun]-OH; thioether N-14)
- IC50 (cell-based binding high-content assay, mVISTA, read-out: HC CBA miPr ISTA IC50): 29.5 nM

SMILES: CCCCCCN1CC(=O)N[C@@H](Cc2ccc(O)cc2)C(=O)N[C@@H](CCCC)C(=O)N[C@@H](CC(N)=O)C(=O)N[C@@H](CCCNC(=N)N)C(=O)N[C@@H](CC(C)C)C(=O)N[C@@H](CCCCC)C(=O)N2CCC[C@H]2C(=O)N[C@@H](C(C)C)C(=O)N[C@@H](CC(=O)O)C(=O)N[C@H](C(=O)NCC(=O)O)CSCC(=O)N[C@@H](Cc2csc3ccccc23)C(=O)N[C@@H](Cc2c[nH]c3ccccc23)C(=O)N[C@@H](CC(=O)O)C1=O [compound 1150] ({CH2CO}-[Bta]WD[NHexGly]Y[Nle]NRL[Ahp(2)]PVDCG-OH; thioether N-14)
- IC50 (read-out: HC CBA mVISTA IC50): 12 nM

SMILES: CCCCCCN1CC(=O)N[C@@H](Cc2ccc(O)cc2)C(=O)N[C@@H](CCCC)C(=O)N[C@@H](CC(N)=O)C(=O)N[C@@H](CCCNC(=N)N)C(=O)N(C)[C@@H](CCCC)C(=O)N[C@@H](CCCCC)C(=O)N2CCC[C@H]2C(=O)N[C@@H](C(C)(C)C)C(=O)N[C@@H](CO)C(=O)N[C@H](C(=O)NCC(=O)N[C@@H](CC(=O)NCCOCCOCC(=O)N[C@@H](CC(=O)O)C(=O)NCCOCCOCC(=O)NCCCCCCCCCCC(=O)O)C(=O)O)CSCC(=O)N[C@@H](Cc2cccc(C)c2)C(=O)N[C@@H](Cc2c[nH]c3ccccc23)C(=O)N[C@@H](CC(=O)O)C1=O [compound 2115] ({CH2CO}-[Phe(3-Me)]WD[NHexGly]Y[Nle]NR[NMeNle][Ahp(2)]P[Tle]SCG[βAsp][AEEA]D[AEEA][Aun]-OH; thioether N-14)
- IC50 (read-out: HC CBA mVISTA IC50): 37.3 nM

SMILES: CCCCCCN1CC(=O)N[C@@H](Cc2ccc(O)cc2)C(=O)N[C@@H](CCCC)C(=O)N[C@@H](CC(N)=O)C(=O)N[C@@H](CCCNC(=N)N)C(=O)N2Cc3ccccc3CC2C(=O)N[C@@H](CCCCC)C(=O)N2CCCC2C(=O)N[C@@H](C(C)C)C(=O)N[C@@H](CO)C(=O)N[C@H](C(=O)NCCOCCOCC(=O)N[C@@H](CC(=O)O)C(=O)NCCOCCOCC(=O)NCCCCCCCCCCC(=O)O)CSCC(=O)N[C@@H](Cc2ccc3ccccc3c2)C(=O)N[C@@H](Cc2ccc(O)cc2)C(=O)N[C@@H](CC(=O)O)C1=O (some centres unmarked) [compound 2312] ({CH2CO}-[2Nal]YD[NHexGly]Y[Nle]NR[ξTic][Ahp(2)][ξP]VSC[AEEA]D[AEEA][Aun]-OH; thioether N-14)
- IC50 [1]: 31.5 nM
